No constants are given. Whether binding was seen depends on the method and setting. In cells and extracts the contact can be indirect. A yes stands for co-enrichment or nearness to the bait. Other partners may have been found.

Chains of the proteins cited; added tags and fusions are not shown.
UniProt Q39011: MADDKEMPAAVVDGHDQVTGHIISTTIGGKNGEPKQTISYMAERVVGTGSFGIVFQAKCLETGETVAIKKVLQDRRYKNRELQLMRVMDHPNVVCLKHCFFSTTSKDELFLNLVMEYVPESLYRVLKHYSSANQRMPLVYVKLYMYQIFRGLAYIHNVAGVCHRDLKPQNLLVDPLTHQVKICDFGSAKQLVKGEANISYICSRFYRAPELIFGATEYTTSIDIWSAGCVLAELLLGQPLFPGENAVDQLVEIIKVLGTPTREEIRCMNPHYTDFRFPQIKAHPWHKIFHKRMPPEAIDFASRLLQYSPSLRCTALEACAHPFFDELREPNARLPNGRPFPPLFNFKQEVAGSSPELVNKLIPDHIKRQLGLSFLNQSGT

To fix the notation:
B1: J-DOMAIN PROTEIN REQUIRED FOR CHLOROPLAST ACCUMULATION RESPONSE 1 (protein, UniProt Q9C9Q4 1-651)
chain: MQTLPSSETVLLGSNSAPPVLRSPGGDDVDIDFGDVFGGPPKRRSKVTSNEVTRHSFSESALRRRDVIVDVGDLLPQDEKPVFGEDTSSVRRRFTTDDFFDDIFRVNESSSLPGSRILSPAHKPESSSGTSSPSQFSLPAKATEIPTFNLAATRSLNKNKETVSSSPLSRTSSKADVVSTAKSYSDDCDDPPQVFVTGKGRQFHFSIYKWPNKGVPVVIWGSSRLSSMSKAEETTPVPLSDYRKTSVVEKLGKNEEGDGKSGLSGLKDVKKTSLKRPGVQTKEEKTETDLKSEQAFFGVSKAREANVKPLDSVESEQAFSGVSKAHEATTVKPLHSIFHEEDERQDEKIVSEREVRKGKSKAKNTRSFTEDSRTKKKSQGTKSSLDSSPIPDKSSFASSSAAPEVGKDGVKGKVSDFVKIFSKGASVGAGGESLGQSSRWRAKETPKTDIIHDGSNAKETVNIPDQQKKSTPDIPAMNRDQKPSQSTQKKDSDRESMNYKAPGDTVQEERQEPSTTHTTSEDIDEPFHVNFDVEDITQDENKMEEANKDAEEIKNIDAKIRKWSSGKSGNIRSLLSTLQYILWSGSGWKPVPLMDMIEGNAVRKSYQRALLILHPDKLQQKGASANQKYMAEKVFELLQEAWDHFNTLGPV
B2: KINESIN LIKE PROTEIN FOR ACTIN BASED CHLOROPLAST MOVEMENT 1 (protein, UniProt Q9LX99 1-1273)
chain: MADQRSKTNRWNWEVSGFEPRKSSSNASFAESTGHRTTGPLLRRNSISTPSLPPKQAIASKVNGLKEKVKLAKEDYLELRQEATDLQEYSNAKLDRVTRYLGVLAEKSRKLDQFVLETEARISPLINEKKRLFNDLLTAKGNIKVFCRARPLFEDEGPSVIEFPGDCTICVNTSDDTLSNPKKDFEFDRVYGPHVGQAALFSDVQPFVQSALDGSNVSILSYGQTNAGKTYTMEGSNHDRGLYARCFEELFDLANSDSTSTSRFSFSLSVFEIYNEQIRDLLSETQSNLPNINMDLHESVIELGQEKVDNPLEFLGVLKSAFLNRGNYKSKFNVTHLIVSIHIYYSNTITGENIYSKLSLVDLAGSEGLIMENDSGDHVTDLLHVMNSISALGDVLSSLTSGKDSIPYDNSILTRVLADSLGGSSKTLMIVNICPSVQTLSETISCLNYAARARNTVPSLGNRDTIKKWRDVASDARKELLEKERENQNLKQEVVGLKKALKDANDQCVLLYSEVQRAWKVSFTLQSDLKSENIMLVDKHRLEKEQNSQLRNQIAQFLQLDQEQKLQMQQQDSAIQNLQAKITDLESQVSEAVRSDTTRTGDALQSQDIFSPIPKAVEGTTDSSSVTKKLEEELKKRDALIERLHEENEKLFDRLTERSMAVSTQVLSPSLRASPNIQPANVNRGEGYSAEAVALPSTPNKNNGAITLVKSGTDLVKTTPAGEYLTAALNDFDPEEYEGLAAIADGANKLLMLVLAAVIKAGASREHEILAEIRDSVFSFIRKMEPRRVMDTMLVSRVRILYIRSLLARSPELQTIRVSPVECFLEKPNTGRSKSTSRGSSPGRSPVRYLDTQIHGFKVNIKAERRNKLASVVSRMRGLEQDAGRQQVTGVKLREMQDEAKSFAIGNKALAALFVHTPAGELQRQIRLWLAENFEFLSVTSDDVSGGNGGQLELLSTAIMDGWMAGLGAAVPPHTDALGQLLSEYAKRVYTSQMQHMKDIAGTLAAEEAEDAGQVSKLRSALESVDHKRRKILQQMKSDAALLNLEEGSSPIPNPSTAAEDSRLASLISLDGILKQVKEITRQASVHVLSKSKKKALLESLDELTERMPSLLDIDHPCAQREIATAHQLVETIPEQEDTNILEQSHDRRPSLESISSGETDVSQWNVLQFNTGSSAPFIIKCGGNNNSELVIKADARVQEPKGGEIVRVVPRPSVLVNMSLEEMKQMFVQLPEALSLLALARTADGTRARYSRLYKTLAMKVPSLKDLVSELE
B3: BSL2 (protein, UniProt Q9SJF0 1-1018)
chain: MDEDSSMVADNDQDREFQSLDGGQSPSPMERETPQQMNDQSPPPEGGSVPTPPPSDPNPATSQQQAAAVVGQEQQPALVVGPRCAPTYSVVDAMMDKKEDGPGPRCGHTLTAVPAVGDEGTPGYIGPRLVLFGGATALEGNSGGTGTPTSAGSAGIRLAGATADVHCYDVLSNKWTRLTPFGEPPTPRAAHVATAVGTMVVIQGGIGPAGLSAEDLHVLDLTQQRPRWHRVVVQGPGPGPRYGHVMALVGQRYLMAIGGNDGKRPLADVWALDTAAKPYEWRKLEPEGEGPPPCMYATASARSDGLLLLCGGRDANSVPLASAYGLAKHRDGRWEWAIAPGVSPSSRYQHAAVFVNARLHVSGGALGGGRMVEDSSSVAVLDTAAGVWCDTKSVVTSPRTGRYSADAAGGDASVELTRRCRHAAAAVGDLIFIYGGLRGGVLLDDLLVAEDLAAAETTYAASHAAAAAATNSPPGRLPGRYGFSDERNRELSESAADGAVVLGSPVAPPVNGDMHTDISPENALLPGTRRTNKGVEYLVEASAAEAEAISATLAAAKARQVNGEVELPDRDCGAEATPSGKPTFSLIKPDSMGSMSVTPAGIRLHHRAVVVAAETGGALGGMVRQLSIDQFENEGRRVSYGTPESATAARKLLDRQMSINSVPKKVIAHLLKPRGWKPPVRRQFFLDCNEIADLCDSAERIFASEPTVLQLKAPIKIFGDLHGQFGDLMRLFDEYGSPSTAGDISYIDYLFLGDYVDRGQHSLETISLLLALKVEYQHNVHLIRGNHEAADINALFGFRIECIERMGERDGIWVWHRINRLFNWLPLAASIEKKIICMHGGIGRSINHVEQIENIQRPITMEAGSIVLMDLLWSDPTENDSVEGLRPNARGPGLVTFGPDRVMEFCNNNDLQLIVRAHECVMDGFERFAQGHLITLFSATNYCGTANNAGAILVLGRDLVVVPKLIHPLPPALSSPETSPERHIEDTWMQELNANRPATPTRGRPQNSNDRGGSLAWM
B4: CHLOROPLAST UNUSUAL POSITIONING 1 (protein, UniProt Q9LI74 1-1004)
chain: MFVRIGFVVAASIAAVTVKRLNVKPSKPSKPSDNGEGGDKEQSVDPDYNLNDKNLQEEEEEEEEEVKLINSVINQTRGSFSDYLDDDILPEFEDLLSGEIEYPLPDDDNNLEKAEKERKYEVEMAYNDGELERLKQLVKELEEREVKLEGELLEYYGLKEQESDIVELQRQLKIKTVEIDMLNITINSLQAERKKLQEELSQNGIVRKELEVARNKIKELQRQIQLDANQTKGQLLLLKQHVSSLQMKEEEAMNKDTEVERKLKAVQDLEVQVMELKRKNRELQHEKRELSIKLDSAEARIATLSNMTESDKVAKVREEVNNLKHNNEDLLKQVEGLQMNRFSEVEELVYLRWVNACLRYELRNYQTPAGKISARDLSKNLSPKSQAKAKRLMLEYAGSERGQGDTDLESNYSQPSSPGSDDFDNASMDSSTSRFSSFSKKPGLIQKLKKWGKSKDDSSVQSSPSRSFYGGSPGRLSSSMNKQRGPLESLMIRNAGESVAITTFGQVDQESPGTPETPNLPRIRTQQQASSPGEGLNSVAASFHVMSKSVDNVLDEKYPAYKDRHKLAVEREKHIKHKADQARAERFGGNVALPPKLAQLKEKRVVVPSVITATGDQSNESNESNEGKASENAATVTKMKLVDIEKRPPRVPRPPPRSAGGGKSTNLPSARPPLPGGGPPPPPPPPGGGPPPPPGGGPPPPPPPPGALGRGAGGGNKVHRAPELVEFYQSLMKRESKKEGAPSLISSGTGNSSAARNNMIGEIENRSTFLLAVKADVETQGDFVQSLATEVRASSFTDIEDLLAFVSWLDEELSFLVDERAVLKHFDWPEGKADALREAAFEYQDLMKLEKQVTSFVDDPNLSCEPALKKMYKLLEKVEQSVYALLRTRDMAISRYKEFGIPVDWLSDTGVVGKIKLSSVQLAKKYMKRVAYELDSVSGSDKDPNREFLLLQGVRFAFRVHQFAGGFDAESMKAFEELRSRAKTESGDNNNNNNNNSNEEESVN
B5: BRI1 SUPPRESSOR 1 (BSU1)-LIKE 1 (protein, UniProt Q8L7U5 1-881)
chain: MGSKPWLHPAPQYKTLETFWDDEDDAPGPRCAHTLTAVAATKTHGPRLILFGGATAIEGGSSSVPGIRLAGVTNTVHSYDILTRKWTRLKPAGEPPSPRAAHAAAAVGTMVVFQGGIGPAGHSTDDLYVLDMTNDKFKWHRVVVQGDGPGPRYGHVMDLVSQRYLVTVTGNDGKRALSDAWALDTAQKPYVWQRLNPDGDRPSARMYASGSARSDGMFLLCGGRDTLGAPLGDAYGLLMHRNGQWEWTLAPGVAPSPRYQHAAVFVGARLHVSGGVLRGGRVIDAEASVAVLDTAAGVWLDRNGQVTSARGSKGQIDQDPSFELMRRCRHGAASVGIRIYVHGGLRGDVLLDDFLVAENSTFQSDISSPLLASDRTQQSSTPRFSYAARPPSGSEPSFSMSEGLSLDENSLEKLTEASAAEAEVASSVWRAAQLGAGTLDEEPSTSDASSPIVESTTDGTANEGDVRLHPRAVVVAKETVGSLGGMVRQLSLDQFQNESRRMVPMNNSDVPQPTKKFTRQKSPQGLHKKVIAALLRPRNWKPPGNRKFFLDSYEVGELCYAAEQIFMHEQTVLQLKAPIKVFGDLHGQFGDLMRLFDEYGFPSTAGDITYIDYLFLGDYVDRGQHSLETITLLLALKIEYPENVHLIRGNHEAADINALFGFRLECIERMGENDGIWAWTRFNQLFNYLPLAALIENKIICMHGGIGRSISTVEQIEKIERPITMDAGSLVLMDLLWSDPTENDSIEGLRPNARGPGLVTFGPDRVTEFCKRNKLQLIIRAHECVMDGFERFAQGQLITLFSATNYCGTANNAGAILVVGRGLVIVPKLIHPLPPPILSPENSPEHSGDDAWMQELNIQRPPTPTRGRPQPDFDRSSLAYI
B6: translation initiation factor eIF4B2 (protein, UniProt Q9SAD7 1-549)
chain: MSKPWGGIGAWADEAERADEEQAAEATATAADSQSFPSLKEAATAKSSKKKKKMTLSEFTKGAYTAPSSAGLTREQMLQLPTGPRQRSEDEMQPGRLGGGFSSYGGGRSSGPPGRMSRDREDSDGSWGGGGGGRRSYGGFDDDQRGSNSRVSDFPQVSRADEDDDWGKGKKSLPSFDQGRQGSRYGGGGGSFGGGGGGGAGSYGGGGAGAGSGGGGGFSKADEVDNWAAGKAKSSTFGSGFRESGPEPDRWARGVLPSGGGVQEERRRLVFEPRKADTEVSETPTAVKTSKPSPFGAARPREQVLAEKGLDWKKLDSDIEAKKGQTSRPSSAQSSRPSSAQSNRSESSALNNVENVVKPRPKVNPFGDAKPREVLLEEQGKDWRKIDSELEHRRVDRPETEGERMLKEEIEELRKKLEKEAAIAPESKESQQESDSNHQNLPDLIREKEKNLDLLIRELDDKVRFRPRAVERPGSSASRGGSYSERPHSRAGSIDESRSVESMERPRSHGTGDNWPRPVDDRRNFQGSKERGFFNNRNFDRSSSAREGW

The target in the test is BIN2-YFP-TbID (full-length BIN2 fused with YFP and TurboID), in transgenic Arabidopsis (Arabidopsis thaliana) (UniProt Q39011). Put plainly: proximity labelling; TbPL-MS: transgenic Arabidopsis seedlings with BIN2-YFP-TbID against YFP-YFP-TbID control, 14N/15N labelling, 50 µM biotin for 3 h, desalting, streptavidin beads, on-bead digestion, LC-MS/MS; BIN2-proximal: ratio >=3 in at least three of four replicates.
Consider B1, for which the binding entry was “binds”. In the case of B2, the binding entry was “binds”. To B3 belongs “binds”; to B4, “binds”. In the case of B5 it was “binds”; in that of B6, “binds”.
